Measurements taken from US20260344673A1, “A SOLID FORM FOR PREPARATION OF AN AQUEOUS DISPERSION, AQUEOUS DISPERSION, STABLE CONCENTRATE, COMBINED AQUEOUS DISPERSION, AND USES THEREOF” (priority 2022, published 2026).
Counter-ions that a name gives are not always drawn. At least one compound was matched to its structure with a doubt left.

Experiment: Dispersant screening for MFA1.1
Format: physicochemical
Settings: for Dispersant quality: MFA1.1, sodium salt

Structure (SMILES): CCCCC(CC)COC(=O)CC(C(=O)OCC(CC)CCCC)S(=O)(=O)O (stereo not drawn) [Dioctylsulphosuccinate, sodium salt]
- Weight for low viscosity (10% aqueous dispersant solution added to 5.4 g MFA1.1): 8.0 g
- % separation - 2 days (MFA1.1, 15 g dispersant solution, 2 days): 45.0%
- Dispersant quality (listed as dioctylsulphosuccinate sodium salt): average dispersancy
- Dispersant quality: Average
- Physical form (MFA1.1 dispersion after 2 days): Liquid by shaking
- Colour - 2 days (MFA1.1 dispersion, 2 days): Pale grey
